# At least one structure is not confirmed: it was looked up by name or label, or the drawing left a doubt.
# Test system: chemotherapy resistant cell line (U87MG)
# Assay: Cell Titer Glo 2.0 luminescent cell viability assay, plasma in combination with TMZ
# Assay type: cell-based
structure (smiles),measurement,setting,value
"Cn1nnc2c(C(N)=O)ncn2c1=O [TMZ, Temozolomide]",effect on cell viability (in words),TMZ 10 uM alone,ineffective
same,effect on cell viability (in words),TMZ 50 uM alone,already effective
same,effect on cell viability (in words),plasma treatment three minutes followed by TMZ 10 uM,sensitize cells
same,effect on cell viability (in words),plasma treatment three minutes followed by TMZ 50 uM,enhancing cell death
